Percent effect of library compounds

Data taken from ChEMBL document CHEMBL3988442, “University of Dundee, Small-Polar-MMV Screening Library” (2021).

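Whole-parasite assay of Trypanosoma brucei over 72 hours; the read-out is not stated. Concentration: 30 µM. The record gives no direction; compounds that gave an IC50 in retests scored well above the rest, so higher reads as stronger inhibition. Values scatter widely below zero; nearly all retest evidence comes from the higher of the two concentrations used. About 64,000 compounds were tested under these conditions; 1.5% (about 940) showed 50% or more at least once.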

The filed quantity is “Percent Effect” (%).
The record does not define 0% and 100%; most values in the screen are far below 50% and negative numbers occur (in some assays of this library far below -100).
This is an unselected part of the compounds tested.

structure,effect
COCCOCC(=O)Nc1ccnn1-c1ccc(Cl)cc1,5.142
CS(=O)(=O)C1(CNCc2cccc(-n3cccn3)c2)CCOCC1,-36.92
O=C(O)C(F)(F)F.O=C(O)C(F)(F)F.[H][C@@]12CN(CC)C[C@]1([H])[C@@H](OC)CCN2S(=O)(=O)c1cccnc1,-166
[H][C@@]12CC(COCc3ccncc3)C[C@@]1([H])N(C(=O)CN(C)C)CCO2 (stereo partly specified),-17.9
CC(C)(C)c1cc(NC(=O)CN(Cc2ccco2)Cc2cccs2)on1,-50.41
CN(Cc1ccsc1)C(=O)c1cc2c([nH]c1=O)CCCC2=O,12.4
Cc1nnc2n1CCN(Cc1ncc(-c3ccccc3)o1)C2,4.583
CC(C)=CCCC1(C)CCC(=O)N(CCNc2nc(C)cc(=O)[nH]2)C1 (stereo unspecified),-54.43
Cc1ccc(C(=O)Nc2cn[nH]c2)cc1C,-1.787
CC(C)(CNc1cn[nH]c(=O)c1Cl)c1ccc2c(c1)OCCO2,11.85
Cc1cc(C(=O)N2CCOC[C@H](Oc3cnccn3)C2)c(C(F)(F)F)o1,-6.366
COc1cc2c(cc1-c1nc3c(cnn3C(C)C)[nH]1)OCO2,11.47
CCc1nnc2n1CCN(CC(O)CN1CCC(C)CC1)C2 (stereo unspecified),-32.61
CN(C)CCn1c2c(ccc1=O)CCN(Cc1cnn(C)c1)CC2.O=C(O)C(F)(F)F.O=C(O)C(F)(F)F,-19.64
O=C(C1CC=CC1)N1CCc2c(COCc3ccncc3)cncc2C1.O=C(O)C(F)(F)F.O=C(O)C(F)(F)F,42.39
[H][C@@]12CN(Cc3cccc(F)c3)C[C@]1([H])OCCN2CC(=O)N(C)C,-85.19
CCn1nc(Br)nc1Sc1ccccc1NC(C)=O,-9.189
CCc1nccn1-c1cncc(C2CCCN2Cc2cccnc2)n1 (stereo unspecified),43.26
Cc1ccc(NC(=O)C2=CN=S=N2)cc1,-1.488
Cc1nccn1C1CCCN(C(=O)c2cc(Cl)c3c(c2)OCO3)C1 (stereo unspecified),-4.707
Cc1cccc(C)c1OCC(O)CNCc1c(C)nn(C)c1N(C)C (stereo unspecified),-9.645
CC(=O)N(C)C1CCCc2nc(C)sc21 (stereo unspecified),-168.2
O=c1n(Cc2ncccn2)nc(C2CCNCC2)n1-c1ccccc1,-17.23
CC(C)(C)NC(=O)C1CSCN1S(=O)(=O)c1cccc(F)c1 (stereo unspecified),-98.75
CC(C)Oc1ncccc1CNC(=O)Nc1ccccn1,12.66
CC(C)[C@H](NC(=O)NC1CCS(=O)(=O)C1)C(=O)NCc1ccccc1 (stereo partly specified),-26.32
COc1ccc(-n2c(CCC(=O)O)nc3ccccc32)cc1CO,7.419
O[C@@H]1C[C@@H](c2nc(Cc3ccccc3)no2)N(Cc2ccc(F)cc2)C1,-6.588
CCc1c(C)sc2c1c(N)nc(=O)n2CCCN(C)C,10.2
CN1CCN(C(=O)CCc2ccccc2)Cc2cccnc21.O=C(O)C(F)(F)F,-32.1
Cc1nc(C(=O)N(C)C2CC(=O)N(Cc3ccccc3)C2=O)cs1 (stereo unspecified),-25.57
COc1cc(CN(C(=O)Nc2cccnc2OC)C2CC2)ccc1O,6.194
Cn1nccc1CCC(=O)NC1CCCN(c2ccccn2)C1 (stereo unspecified),-19.97
CC(C)(C)n1ncc2c1NC(=O)CC2c1ccsc1 (stereo unspecified),-13.84
CCOc1ccccc1N1CCN(CC2(O)CCCNC2)CC1 (stereo unspecified),-24.1
Cc1nnc(CN2CCOC(c3ccc(Cl)c(Cl)c3)C2)o1 (stereo unspecified),-62.37
Cc1ccc2c(c1)OC(C)(C)CC2NC(=O)C1CCN(S(C)(=O)=O)CC1 (stereo unspecified),-22.49
Cn1nc(CNC(=O)CN2C(=O)CCC2=O)cc1C1CC1,-1.575
N#Cc1ccc(C(=O)N2CCn3c(Cn4cccn4)cnc3C2)cc1.O=C(O)C(F)(F)F,7.998
COCc1nn(CC2CC2)c2c1CN(Cc1cccs1)CC2.O=C(O)C(F)(F)F,-21.22
Cc1nc(C2CCN(C(=O)c3ccn(C)n3)CC2)c2sccn12,1.537
COc1ccccc1-c1nccnc1C1CCN(C(C)=O)CC1,-15.83
c1cc(-c2noc([C@@H]3CCCN3CC3CC3)n2)cc(N2CCCC2)n1,4.91
[H][C@@]12CC[C@@]([H])(C1)[C@H](Nc1nccc(-c3cnn(CCC)c3C)n1)C2,89.15
COCCC1(CO)CCCN(C(=O)c2cc(Cl)ccc2F)C1 (stereo unspecified),-0.9516
Cc1ccccc1N1CCN(C(=O)CC(C)C)CC1,-31.92
Cc1cc(N2CCC(Cc3ccccc3)CC2)nc(-c2ccncc2)n1,99.65
CC(C)CN1CCCC1c1ccc(C(=O)Nc2cccnc2)s1 (stereo unspecified),100.5
Cc1cc2nc(C(C)C)cc(N3CCN(S(N)(=O)=O)CC3)n2n1,11.58
Cc1nn(C)c(C)c1-c1c(-c2ccccc2)ncn1[C@H](CO)C(=O)O,-33.51
CCC(C)[C@H](N)c1nnc(SCC(=O)Nc2cc(C)ccc2C)o1.Cl (stereo partly specified),-56.33
Cc1ccc(NS(=O)(=O)c2cc3c(c(C(=O)O)c2)OCCO3)c(F)c1,-8.336
COc1c(CNCc2nnc3n2CCCCC3)c(C)nn1C.Cl,-29.91
COc1ncccc1CNC(=O)NCc1ccco1,11.99
Cc1ccccc1-n1c(C)cc(=O)[nH]c1=O,-12.38
O=C(O)C(F)(F)F.[H][C@@]12CCN(CC(=O)NC)C[C@]1([H])CN(C(=O)c1ccc(C)cc1)C2,-57.55
Cc1c(-c2cc(C(F)(F)F)nc(N3CCC(N)CC3)n2)cnn1C,47.45
COc1cccc(S(=O)(=O)CCN2CCN(CC(F)F)CC2)c1,100.9
CCN(Cc1ccc2c(c1)OCO2)C(=O)c1ccc(=O)n(C)c1,-29.92
CCc1[nH]ncc1C(=O)N1CCCC(n2cccn2)C1 (stereo unspecified),-9.036
CN(C)C(=O)CCS(=O)(=O)Cc1cc(Cl)c2c(c1)OCO2,-14.36
CCOC(=O)c1c(NC(=O)CN2CCN(C(C)=O)CC2)sc(C)c1C,4.695
Cc1nn(C)c(N(C)C)c1CNCCS(C)(=O)=O,-6.561
CC1(C)CN(C(=O)Nc2ccc(Cn3cccn3)cc2)CCO1,-12.33
CSc1ccsc1C(=O)NCCNC(=O)C1CC1,-45.73
O=C(O)C(F)(F)F.O=C(O)C(F)(F)F.[H][C@@]12CCN(C3CCCC3)C[C@]1(C(=O)NCc1ccccn1)CCO2,-60.73
Cc1ccc(CSc2ncc(Br)c(C(=O)O)n2)cc1,-26.34
CCOc1ccccc1OC1CCN(C(=O)c2c[nH]nn2)CC1,9.317
CCc1nc2ccccc2c(=O)n1CC1(O)CCN(C(=O)C2CC2)CC1.Cl,5.264
Cc1n[nH]c(C)c1CC(=O)N1CCN(C)C2(CCNC(=O)CC2)C1 (stereo unspecified),-0.4932
COC(=O)c1cccc2nc([C@H]3CCN(Cc4ccccc4F)C3)oc12,-3.872
CN(C(=O)OC(C)(C)C)C1CCN(C(=O)c2cc(Cl)c[nH]2)C1 (stereo unspecified),-48.46
Cc1cc(CN2CCOC(CNc3cccnn3)C2)on1 (stereo unspecified),16.89
Cc1nn(C)c(N(C)C)c1CNCc1cccnc1N1CCOCC1,-26.64
CSc1ncccc1C(=O)NCC(c1ccco1)N(C)C (stereo unspecified),-0.9259
O=C(O)C(F)(F)F.[H][C@]12CCN(c3cnccn3)CC[C@]1([H])N(CC(C)C)CCO2,-43.11
Cl.Cl.[H][C@@]12OCCC[C@]1([H])NC[C@@H]2NC(=O)c1cccnc1,9.91
O=C(CC1=CCCCC1)NCCc1csc(N2CCCC2)n1,39.12
Cc1ccc2c(C)c(C(=O)NCc3csc(N)n3)oc2c1,-3.735
COCCN(C)C[C@@H]1CN(C(=O)c2c(C)cccc2OC)C[C@@H]1CO,-45.57
O=C(NCCn1ccc(-c2ccncc2)n1)c1ccncc1,-60.8
COc1ccc(CN2C[C@@H](CN(C)CCO)[C@@H](CO)C2)cc1Cl,15.04
CCc1noc(C(C)N2CCC(NS(=O)(=O)c3cccs3)CC2)n1 (stereo unspecified),-14.93
CCCn1nc(C(=O)NC2(c3ccc(Cl)cc3)CCCC2)ccc1=O,31.02
COCC(C)(CCO)NC(=O)Nc1cccc(Br)c1C (stereo unspecified),-19.65
[H][C@@]12C[C@@H](OC)C[C@]1([H])CN(C(=O)c1cccc3c1OCCO3)C2,-23.55
CC(C)C(NC(=O)c1ccc(=O)[nH]c1)c1nnc2n1CCNCC2 (stereo unspecified),-26.66

The first 10 entries again:

* COCCOCC(=O)Nc1ccnn1-c1ccc(Cl)cc1 : 5.142%
* CS(=O)(=O)C1(CNCc2cccc(-n3cccn3)c2)CCOCC1 : -36.92%
* O=C(O)C(F)(F)F.O=C(O)C(F)(F)F.[H][C@@]12CN(CC)C[C@]1([H])[C@@H](OC)CCN2S(=O)(=O)c1cccnc1 : -166%
* [H][C@@]12CC(COCc3ccncc3)C[C@@]1([H])N(C(=O)CN(C)C)CCO2 (stereo partly specified) : -17.9%
* CC(C)(C)c1cc(NC(=O)CN(Cc2ccco2)Cc2cccs2)on1 : -50.41%
* CN(Cc1ccsc1)C(=O)c1cc2c([nH]c1=O)CCCC2=O : 12.4%
* Cc1nnc2n1CCN(Cc1ncc(-c3ccccc3)o1)C2 : 4.583%
* CC(C)=CCCC1(C)CCC(=O)N(CCNc2nc(C)cc(=O)[nH]2)C1 (stereo unspecified) : -54.43%
* Cc1ccc(C(=O)Nc2cn[nH]c2)cc1C : -1.787%
* CC(C)(CNc1cn[nH]c(=O)c1Cl)c1ccc2c(c1)OCCO2 : 11.85%